# Values from PubChem BioAssay AID1224826 (NIAID, 2016).
# Assay: 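Genes that change LPS-induced Tnf promoter activity in mouse macrophages when knocked down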 (primary screen)
# System: RAW264.7 G9 macrophages from mouse bearing reporters for p65 (GFP) and the Tnf promoter (mCherry)
# Knock-down reagent: siRNA pool against mouse genes, 100 nM
# Duration: 16 h of LPS stimulation, after 2 days of siRNA transfection
# Treatment: bacterial lipopolysaccharide (Salmonella minnesota R595), 10 ng/ml
# Measurement: 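Nuclear mCherry signal of the Tnf promoter reporter measured by imaging after background removal, scaled to each plate median and turned into robust z-scores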
# Reading the numbers: Tnf reporter robust z-score: higher = stronger Tnf promoter reporter signal after LPS; Tnf reporter intensity: higher = stronger Tnf promoter reporter signal
# Call rule: 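a well counts as active at a score of -1.3 or below (Tlr4 knock-down control median) or above 3 (raised signal); controls and wells holding fewer than 50 cells are excluded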
# Meaning of the calls: active = Tnf reporter clearly lowered or raised; inactive = no clear change in Tnf reporter
# Shown is a random part of about 17,000 reagents tested. In the full data, about 1,110 (6.6%) got an active call. 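Active means lowered or raised reporter signal; replicate intensities are raw and not normalised per plate.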 A number with no mark means an inactive call. Reagents against one gene are numbered here.
gene,reagent,Tnf reporter robust z-score,fewer than 50 cells in well,"Tnf reporter intensity, replicate 1","Tnf reporter intensity, replicate 2"
Tnfaip6 (tumor necrosis factor alpha induced protein 6),1,0.07,enough cells in well,251,129
Pja1 (praja ring finger ubiquitin ligase 1),1,-0.28,enough cells in well,140,94.9
"Hnf4aos (hepatic nuclear factor 4 alpha, opposite strand)",1,2.44,enough cells in well,390,165
Recql4 (RecQ protein-like 4),1,0.31,enough cells in well,347,222
C3ar1 (complement component 3a receptor 1),1,-0.35,enough cells in well,144,341
Sybu (syntabulin (syntaxin-interacting)),1,,fewer than 50 cells per well; well left out of calls,34.9,120
Sybu (syntabulin (syntaxin-interacting)),2,0.14,enough cells in well,191,148
Bloc1s4,1,-0.37,enough cells in well,131,172
Kif5b (kinesin family member 5B),1,1.07,enough cells in well,311,216
"Gstm1 (glutathione S-transferase, mu 1)",1,-0.8,enough cells in well,203,104
"Gria3 (glutamate receptor, ionotropic, AMPA3 (alpha 3))",1,0.27,enough cells in well,264,271
Rnf115 (ring finger protein 115),1,-1.41 (active),enough cells in well,58.7,72.4
Or51b17 (olfactory receptor family 51 subfamily B member 17),1,-0.86,enough cells in well,219,95.2
Dmbx1 (diencephalon/mesencephalon homeobox 1),1,,fewer than 50 cells per well; well left out of calls,64.8,47.9
Mapkbp1 (mitogen-activated protein kinase binding protein 1),1,0.19,enough cells in well,226,136
Eri2 (exoribonuclease 2),1,0.28,enough cells in well,192,163
Hnf1b (HNF1 homeobox B),1,-0.46,enough cells in well,263,71.4
Zfp958 (zinc finger protein 958),1,-0.05,enough cells in well,198,210
Pcdhb17 (protocadherin beta 17),1,-0.46,enough cells in well,127,110
Rufy1 (RUN and FYVE domain containing 1),1,2.28,enough cells in well,212,241
Or8g33 (olfactory receptor family 8 subfamily G member 33),1,0.78,enough cells in well,166,187
Camkv (CaM kinase-like vesicle-associated),1,2.72,enough cells in well,328,343
Hspbap1 (Hspb associated protein 1),1,-0.06,enough cells in well,214,111
Retreg1 (reticulophagy regulator 1),1,0.09,enough cells in well,173,107
"Cryba4 (crystallin, beta A4)",1,3.03 (active),enough cells in well,425,460
Gdap10 (ganglioside-induced differentiation-associated-protein 10),1,0.42,enough cells in well,301,144
Id3 (inhibitor of DNA binding 3),1,-0.08,enough cells in well,226,188
"Rab24 (RAB24, member RAS oncogene family)",1,-1.45 (active),enough cells in well,70.5,61.9
Or2q1 (olfactory receptor family 2 subfamily Q member 1),1,,fewer than 50 cells per well; well left out of calls,112,85
Nrep (neuronal regeneration related protein),1,0.3,enough cells in well,220,176
Or5m5 (olfactory receptor family 5 subfamily M member 5),1,0.57,enough cells in well,201,197
"Crygn (crystallin, gamma N)",1,-0.13,enough cells in well,126,221
"Ppp2r5c (protein phosphatase 2, regulatory subunit B', gamma)",1,0.17,enough cells in well,270,195
Mest (mesoderm specific transcript),1,-0.66,enough cells in well,225,143
Eps8l1 (EPS8 signaling adaptor L1),1,-0.45,enough cells in well,196,125
Ppid (peptidylprolyl isomerase D (cyclophilin D)),1,-0.67,enough cells in well,187,152
Ift43 (intraflagellar transport 43),1,,fewer than 50 cells per well; well left out of calls,138,42.8
Abhd17c (abhydrolase domain containing 17C),1,,fewer than 50 cells per well; well left out of calls,128,38.2
Cox10,1,0.47,enough cells in well,274,233
Taok1 (TAO kinase 1),1,0.19,enough cells in well,184,61.6

5 neighbouring reagents already listed:
gene,reagent,Tnf reporter robust z-score,fewer than 50 cells in well,"Tnf reporter intensity, replicate 1","Tnf reporter intensity, replicate 2"
Rnf115 (ring finger protein 115),1,-1.41 (active),enough cells in well,58.7,72.4
Or51b17 (olfactory receptor family 51 subfamily B member 17),1,-0.86,enough cells in well,219,95.2
Dmbx1 (diencephalon/mesencephalon homeobox 1),1,,fewer than 50 cells per well; well left out of calls,64.8,47.9
Mapkbp1 (mitogen-activated protein kinase binding protein 1),1,0.19,enough cells in well,226,136
Eri2 (exoribonuclease 2),1,0.28,enough cells in well,192,163
